We go through two molecules from patent US20230174507A1, “IMIDAZOLE 3-OXIDE DERIVATIVE BASED ACSS2 INHIBITORS AND METHODS OF USE THEREOF” (METABOMED LTD., priority 2020, published 2023).

The chains behind the UniProt entries cited, without tags or fusion partners. Residues count along the entry.
UniProt Q9NR19, whole entry: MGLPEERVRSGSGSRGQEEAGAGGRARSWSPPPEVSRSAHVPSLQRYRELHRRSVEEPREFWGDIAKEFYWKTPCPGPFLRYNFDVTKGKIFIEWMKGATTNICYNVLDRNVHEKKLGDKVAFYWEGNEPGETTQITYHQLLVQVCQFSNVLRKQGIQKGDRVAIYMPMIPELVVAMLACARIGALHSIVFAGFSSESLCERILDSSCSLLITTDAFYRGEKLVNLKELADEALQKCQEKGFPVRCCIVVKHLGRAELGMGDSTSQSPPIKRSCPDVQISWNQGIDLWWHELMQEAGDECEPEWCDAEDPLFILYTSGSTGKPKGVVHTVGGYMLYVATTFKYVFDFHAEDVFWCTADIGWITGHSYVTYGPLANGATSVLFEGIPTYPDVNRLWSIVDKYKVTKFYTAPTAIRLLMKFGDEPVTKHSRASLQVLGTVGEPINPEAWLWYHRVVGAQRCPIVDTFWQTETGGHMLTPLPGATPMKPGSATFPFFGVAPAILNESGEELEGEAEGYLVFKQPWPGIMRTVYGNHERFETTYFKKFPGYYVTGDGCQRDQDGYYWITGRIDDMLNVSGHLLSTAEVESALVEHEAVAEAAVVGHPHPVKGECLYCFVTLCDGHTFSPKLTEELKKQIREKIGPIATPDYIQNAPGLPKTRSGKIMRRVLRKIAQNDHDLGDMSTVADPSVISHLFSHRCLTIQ
UniProt Q9NUB1, 38-689 limits assumed: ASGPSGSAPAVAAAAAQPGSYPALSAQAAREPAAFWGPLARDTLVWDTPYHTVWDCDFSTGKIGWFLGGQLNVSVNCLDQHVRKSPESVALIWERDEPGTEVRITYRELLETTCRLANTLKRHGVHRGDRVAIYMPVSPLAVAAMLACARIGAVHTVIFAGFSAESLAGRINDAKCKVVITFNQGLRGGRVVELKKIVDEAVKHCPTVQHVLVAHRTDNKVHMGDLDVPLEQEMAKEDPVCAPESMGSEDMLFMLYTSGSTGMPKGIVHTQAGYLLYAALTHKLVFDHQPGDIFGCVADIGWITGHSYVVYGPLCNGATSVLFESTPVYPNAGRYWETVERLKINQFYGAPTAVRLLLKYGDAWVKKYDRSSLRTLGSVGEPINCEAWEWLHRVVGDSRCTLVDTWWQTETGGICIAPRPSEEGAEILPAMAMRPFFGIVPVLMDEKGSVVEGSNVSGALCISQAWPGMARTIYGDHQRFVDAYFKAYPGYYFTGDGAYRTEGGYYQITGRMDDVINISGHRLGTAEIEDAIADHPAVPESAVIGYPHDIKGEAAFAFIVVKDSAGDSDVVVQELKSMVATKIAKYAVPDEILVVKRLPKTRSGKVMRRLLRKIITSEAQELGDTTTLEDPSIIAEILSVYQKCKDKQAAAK

As usually defined, the IC50 is the point on the concentration scale where inhibition reaches its midpoint.

The structures given here were assigned with low confidence; some may be wrong. Where only a bound is given, the exact number is not on record here.

For one assay, the target named is human ACSS2 protein (Homo sapiens, UniProt Q9NR19). Kind of assay: ACSS2 cell-free activity assay (pyrophosphatase-coupled, Biomol green). Conditions: read-out: ACSS2 Biochemical IC50; 10 nM human ACSS2, 90 minutes at 37 C, absorbance at 620 nm; call rule not given here. The method, then: ACSS2 Cell-Free Activity Assay (Cell-Free IC50)
The assay is based on a coupling reaction with Pyrophosphatase: ACSS2 is converting ATP+CoA+Acetate=>AMP+pyrophosphate+Acetyl-CoA (Ac-CoA). Pyrophosphatase converts pyrophosphate, a product of the ACSS2 reaction, to phosphate which can be detected by measuring the absorbance at 620 nm after incubation with the Biomol green reagent (Enzo life Science, BML-AK111).
(§1) Cell Free IC50 Determination:
10 nM of human ACSS2 protein (OriGene Technologies, Inc) was incubated for 90 minutes at 37 C with various compounds' concentrations in a reaction containing 50 mM Hepes pH 7.5, 10 mM DTT, 90 mM KCl, 0.006% Tween-20, 0.1 mg/ml BSA, 2 mM MgCl2, 10 μM CoA, 5 mM NaAc, 300 μM ATP and 0.5 U/ml Pyrophosphatase (Sigma). At the end of the reaction, Biomol Green was added for 30 minutes at RT and the activity was measured by reading the absorbance at 620 nm. IC50 values were calculated using non-linear regression curve fit with 0% and 100% constrains (CDD Vault, Collaborative Drug Discovery, Inc.).

A further assay addresses human ACSS1 protein (Homo sapiens, UniProt Q9NUB1). Kind of assay: ACSS1 cell-free activity assay (pyrophosphatase-coupled, Biomol green). Conditions: 5 nM human ACSS1, 30 minutes at room temperature, absorbance at 620 nm. How it is done:
ACSS1 Cell-Free Activity Assay (Cell-Free IC50)
The assay is based on a coupling reaction with Pyrophosphatase: ACSS1 is converting ATP+CoA+Acetate=>AMP+pyrophosphate+Acetyl-CoA (Ac-CoA). Pyrophosphatase converts pyrophosphate, a product of the ACSS1 reaction, to phosphate which can be detected by measuring the absorbance at 620 nm after incubation with the Biomol green reagent (Enzo life Science, BML-AK111).
as §1
5 nM of human ACSS1 protein (MyBioSource) was incubated for 30 minutes at room temperature with various compounds' concentrations in a reaction containing 50 mM Hepes pH 7.5, 10 mM DTT, 90 mM KCl, 0.006% Tween-20, 0.1 mg/ml BSA, 2 mM MgCl2, 15 μM CoA, 5 mM NaAc, 300 μM ATP and 0.5 U/ml Pyrophosphatase (Sigma). At the end of the reaction, Biomol Green was added for 30 minutes at RT and the activity was measured by reading the absorbance at 620 nm. IC50 values were calculated using non-linear regression curve fit with 0% and 100% constrains (CDD Vault, Collaborative Drug Discovery, Inc.).

Turning to `CCCc1cc(C)c(-c2cc(-c3[nH]c(C)c(C(=O)Nc4cccc(C(F)(F)CC)c4)[n+]3[O-])ccc2OC)c(C)c1`, the IC50 at human ACSS2 protein is over 30 nM. Besides, the “ACSS1 Biochemical IC50 (nM)” value at human ACSS1 protein is recorded as “Inactive”.
As to `CCC(F)(F)c1cccc(NC(=O)c2c(C)[nH]c(-c3ccc(OC)c(C4C(C)CCCC4C)c3)[n+]2[O-])c1` (stereo not shown), the 50% inhibitory concentration (IC50) on human ACSS2 protein fell in the range of 1 to 30 nM. Also, the “ACSS1 Biochemical IC50 (nM)” value on human ACSS1 protein is recorded as “Inactive”.
